Earlier results on 1 compound are cited in publication PMC9096754 (Scientific Reports, 2022).

For this data set, the system named is PKN2. The following applies: previously determined, cited from earlier work.

With `CCS(=O)(=O)N1CC(CC#N)(n2cc(-c3ncnc4[nH]ccc34)cn2)C1` [Baricitinib], the IC50 (in general, the concentration at which inhibition is half-maximal) (read-out: IC50, PKN2) is 284 nM. The Kd (read-out: apparent dissociation constant [Kd app], PKN2) was 269 nM.
